These are yes or no findings as the source states them, for the method shown. In cells and extracts the contact can be indirect. These calls come from enrichment with a bait or labelling near it, and not all partners need be listed.

By UniProt entry, the sequences of proteins in these tests, tags left out. Residues count along the entry.
UniProt P10809, residues 27-573: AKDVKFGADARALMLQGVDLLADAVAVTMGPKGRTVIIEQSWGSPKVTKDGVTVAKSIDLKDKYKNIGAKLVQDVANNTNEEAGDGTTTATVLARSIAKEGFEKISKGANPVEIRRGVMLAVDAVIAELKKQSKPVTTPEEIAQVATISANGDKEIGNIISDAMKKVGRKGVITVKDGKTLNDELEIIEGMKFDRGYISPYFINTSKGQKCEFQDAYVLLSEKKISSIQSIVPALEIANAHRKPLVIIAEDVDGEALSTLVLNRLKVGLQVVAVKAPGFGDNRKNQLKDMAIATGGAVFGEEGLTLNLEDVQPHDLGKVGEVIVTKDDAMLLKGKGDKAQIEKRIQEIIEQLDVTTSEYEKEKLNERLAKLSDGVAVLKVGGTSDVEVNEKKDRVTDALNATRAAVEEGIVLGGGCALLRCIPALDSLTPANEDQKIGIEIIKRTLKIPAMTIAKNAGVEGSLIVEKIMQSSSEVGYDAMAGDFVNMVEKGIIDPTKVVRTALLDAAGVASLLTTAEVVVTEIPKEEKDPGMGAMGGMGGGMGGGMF

The target of this experiment is T1, IKKα, endogenous (human (endogenous in HeLa)) (UniProt O15111).
T1 sequence: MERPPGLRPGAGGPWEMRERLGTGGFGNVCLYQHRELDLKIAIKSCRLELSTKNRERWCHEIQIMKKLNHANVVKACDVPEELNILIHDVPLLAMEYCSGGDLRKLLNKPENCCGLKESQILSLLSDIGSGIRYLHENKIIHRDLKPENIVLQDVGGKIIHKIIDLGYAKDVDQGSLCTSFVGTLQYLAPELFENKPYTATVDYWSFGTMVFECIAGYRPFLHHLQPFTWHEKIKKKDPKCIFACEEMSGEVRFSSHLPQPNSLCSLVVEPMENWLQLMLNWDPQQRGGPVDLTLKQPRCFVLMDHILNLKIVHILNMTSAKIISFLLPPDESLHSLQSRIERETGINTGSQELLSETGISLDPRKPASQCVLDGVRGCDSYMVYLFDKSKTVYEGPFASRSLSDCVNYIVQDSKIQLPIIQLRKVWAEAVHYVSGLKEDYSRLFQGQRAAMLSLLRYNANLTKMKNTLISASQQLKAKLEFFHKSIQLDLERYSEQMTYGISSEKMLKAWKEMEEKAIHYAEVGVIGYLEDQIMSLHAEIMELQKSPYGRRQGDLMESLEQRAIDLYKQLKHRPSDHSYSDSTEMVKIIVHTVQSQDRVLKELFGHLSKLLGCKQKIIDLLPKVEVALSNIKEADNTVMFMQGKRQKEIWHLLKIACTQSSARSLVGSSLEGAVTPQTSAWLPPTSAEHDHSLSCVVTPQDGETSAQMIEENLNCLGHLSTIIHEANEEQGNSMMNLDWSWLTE
In words: affinity purification with mass spectrometry; IKK complex precipitated from lysates of unstimulated HeLa S3 cells with anti-IKKα-conjugated agarose beads (lysis buffer A: 20 mM HEPES pH 7.5, 150 mM NaCl, 1% Triton X-100, 10% glycerol), eluted with 0.1 M glycine pH 2.5, silver-stained bands sequenced by LC-MS/MS.

“heat shock protein 60 (Hsp60), endogenous (from UniProt P10809 27-573)”: the binding entry is recorded as “binds”.

The record behind these values is paper PMC2843631.
